Test results from patent publication US20220033481A1 (NANJING LEGEND BIOTECH, published 2022).
Changes are numbered by the printed parent chain. Results are given in words; binding and its absence hold for the method and conditions named. Some entries that bind do so weakly or less than the wild type.

Amino acid sequences for entries named in this document (tags omitted). Residues count along the entry.
UniProt P02787, residues 20-698: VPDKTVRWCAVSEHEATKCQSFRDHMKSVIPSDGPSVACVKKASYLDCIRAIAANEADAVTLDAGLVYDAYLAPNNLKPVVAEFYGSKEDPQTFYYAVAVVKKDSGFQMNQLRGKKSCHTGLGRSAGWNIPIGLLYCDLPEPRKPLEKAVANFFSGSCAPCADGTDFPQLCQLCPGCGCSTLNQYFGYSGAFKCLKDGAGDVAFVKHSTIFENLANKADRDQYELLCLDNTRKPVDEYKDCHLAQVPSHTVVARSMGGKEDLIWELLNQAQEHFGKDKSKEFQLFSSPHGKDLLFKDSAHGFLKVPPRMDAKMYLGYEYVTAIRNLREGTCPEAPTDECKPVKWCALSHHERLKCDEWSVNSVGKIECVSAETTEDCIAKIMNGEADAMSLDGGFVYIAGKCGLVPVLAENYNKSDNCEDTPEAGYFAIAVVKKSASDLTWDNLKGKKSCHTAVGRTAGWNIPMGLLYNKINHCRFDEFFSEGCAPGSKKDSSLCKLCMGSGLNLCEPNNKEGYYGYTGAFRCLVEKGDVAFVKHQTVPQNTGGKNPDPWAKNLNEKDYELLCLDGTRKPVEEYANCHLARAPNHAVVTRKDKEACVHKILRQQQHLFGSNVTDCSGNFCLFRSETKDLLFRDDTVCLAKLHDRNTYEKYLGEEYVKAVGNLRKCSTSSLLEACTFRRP

Molecular target: human transferrin (human, UniProt P02787 20-698)
Test: SPR (BIAcore T200, CM5 chip); transferrin immobilised by amine coupling, sdAb injected

B1: AS01299VH3a-L47 (VHH)
VHH: EVQLVESGGGLVQPGGSLRLSCAASGSIFSIATMAWYRQAPGKGLEWVAGITRSGSTNYRDSVKGRFTISRDNSKNTMYLQMNSLRAEDTAVYYCTDYSSRYYHDYWGQGTLVTVSS
notes: Humanized variant of AS01299, C-terminal 6xHis tag; also called AS01299VH3a-L47-2
Which binding does the source give for B1 here?
The binding was “binds”.

B2: AS01299VH4-L47 (VHH)
VHH: B1 VHH with A49S, M78L
notes: Humanized variant of AS01299, C-terminal 6xHis tag; also called AS01299VH4-L47-2
How did the binding turn out when B2 was run?
Its binding is “binds”.
